Source: PubChem BioAssay AID330 (DTP/NCI, 2004)
The list is a part of this screen's results and no random one: it gathers tests that were run many times, whatever their T/C, doses with no T/C, and many T/C values between a quarter and a half above the control. Other doses and runs of a compound stand elsewhere. T/C: endpoint of the treated group in % of that of the vehicle group. Some doses have a count of surviving animals in place of a T/C: the source holds a T/C of zero for them, seemingly a mark for toxic or unscored doses. Some survivor counts are full or nearly so, which does not show that the dose was tolerated: the source hardly ever lists a survival T/C far under the control, and the zero likely stands for such cases as well. Survivors were counted at the toxicity check, usually on the fifth day, unless a day is given; later deaths do not show. Schedule codes are those of the source, read here as Q, the interval in days (D) or hours (H), X, the number of doses. Where survival is the endpoint, the PubChem record calls one and a half times the control and up active, and a quarter to a half above the control has no call in these data; cut-offs in other NCI protocols can differ. Some entries hold several experiments; their values stand side by side, smallest first. Some T/C values carry the count of animals alive at the toxicity check (mostly the fifth day); where none is given, no animal had died by that day.

Test system: P388 leukemia ip, CD2F1 mice, survival T/C
Assay: NCI In Vivo Anticancer Drug Screen. Data for tumor model P388 Leukemia (intraperitoneal) in CD2F1 (CDF1) mice
Conditions: T/C endpoint: median survival time, higher T/C = longer survival
[1] = dose: 200.0 mg/kg/injection, schedule: Q01DX005 (ip), vehicle: saline
[2] = dose: 200.0 mg/kg/injection, schedule: Q01DX005 (ip), vehicle: saline with Tween-80
[3] = dose: 50.0 mg/kg/injection, schedule: Q01DX005 (ip), vehicle: saline with Tween-80
[4] = dose: 100.0 mg/kg/injection, schedule: Q01DX005 (ip), vehicle: saline with Tween-80
[5] = dose: 200.0 mg/kg/injection, schedule: Q01DX009 (ip), vehicle: saline
[6] = dose: 60.0 mg/kg/injection, schedule: Q01DX005 (ip), vehicle: saline with Tween-80
[7] = dose: 120.0 mg/kg/injection, schedule: Q01DX005 (ip), vehicle: saline with Tween-80
[8] = dose: 400.0 mg/kg/injection, schedule: Q04DX003 (ip), vehicle: saline with Tween-80
[9] = dose: 400.0 mg/kg/injection, schedule: Q01DX009 (ip), vehicle: saline with Tween-80
[10] = dose: 50.0 mg/kg/injection, schedule: Q01DX009 (ip), vehicle: saline with Tween-80
[11] = dose: 100.0 mg/kg/injection, schedule: Q01DX009 (ip), vehicle: saline with Tween-80
[12] = dose: 400.0 mg/kg/injection, schedule: Q04DX002 (ip), vehicle: saline with Tween-80

For CCCCCCCCCCCCC(O)CCC1CCCCN1 (stereo unspecified), the survivor count [1] was 0 of 6.
In the case of CC(C)C(NN)C(=O)O (stereo unspecified), the survivor count [2] is reported as 4 of 5.
For Cc1c(COC(=O)NC(C)C)c(COC(=O)NC(C)C)c2n1CS(=O)C2 (stereo unspecified), the T/C [3] was 126 % of control, the T/C [4] was 130 and 132 % of control and the survivor count (dose: 400.0 mg/kg/injection, schedule: Q01DX005 (ip), vehicle: saline with Tween-80) was 3 of 6.
For Cc1ccc(-n2nc(C)cc2C)nn1, the survivor count [5] was 3 of 6.
Cc1cccc(C)c1NC(=O)Nc1cccc(C#N)c1 was tested, and the survivor count [6] was 6 of 6 and the survivor count [7] was 6 of 6.
For CC1=CC(=O)C=CC1=Nc1ccc(N(CCCl)CCCl)cc1, the T/C (dose: 200.0 mg/kg/injection, schedule: Q04DX003 (ip), vehicle: Klucel (hydroxypropylcellulose) (HPC)) was 127 % of control.
With CC1([CH2][Hg][I])COCC([CH2][Hg][I])O1 (stereo unspecified) the survivor count (dose: 100.0 mg/kg/injection, schedule: Q04DX003 (ip), vehicle: saline with Tween-80) was 0 of 6, the survivor count (dose: 200.0 mg/kg/injection, schedule: Q04DX003 (ip), vehicle: saline with Tween-80) was 0 of 6 and the survivor count [8] was 0 of 6.
CN(C)CC(O)c1ccc2cc(Br)c3ccccc3c2c1 (stereo unspecified) was tested, and the survivor count [4] was 1 of 5 and the survivor count [2] was 0 of 5.
With O=NN(CCCl)C(=O)Nc1cccc(O)c1 the survivor count (dose: 150.0 mg/kg/injection, schedule: Q04DX003 (ip), vehicle: Klucel (hydroxypropylcellulose) (HPC)) was 6 of 6.
COc1cccc2c1C(=O)c1c(O)c3c(c(O)c1C2=O)C[C@@](O)(/C(C)=N\NC(=O)CCC(N)C(=O)O)C[C@@H]3OC1CC(N)C(O)C(C)O1 (stereo partly specified) (tested in a mixture with another compound) was tested, and the T/C (dose: 37.5 mg/kg/injection, schedule: Q04DX003 (ip), vehicle: water) was 149 % of control and the T/C (dose: 150.0 mg/kg/injection, schedule: Q04DX003 (ip), vehicle: water) was 140 % of control.
O=C(Nc1cccc(Br)c1)Oc1ccc(Cl)c2cccnc12 was tested, and the survivor count [6] was 5 of 6 and the survivor count [7] was 6 of 6.
Cc1ccc(CN(S(=O)(=O)c2ccc(C)cc2)S(=O)(=O)c2ccc(C)cc2)cc1 was tested, and the survivor count [9] was 5 of 6.
With COc1ccc2[nH]c3c(c2c1)CCNC3CC(C)CCC=C(C)C (stereo unspecified) the T/C (dose: 50.0 mg/kg/injection, schedule: Q01DX009 (ip), vehicle: Klucel (hydroxypropylcellulose) (HPC)) was 135 % of control, the survivor count [10] was 6 of 6 and the T/C (dose: 100.0 mg/kg/injection, schedule: Q01DX009 (ip), vehicle: Klucel (hydroxypropylcellulose) (HPC)) was 138 % of control. The survivor count [11] was 6 of 6 and the survivor count (dose: 200.0 mg/kg/injection, schedule: Q01DX009 (ip), vehicle: Klucel (hydroxypropylcellulose) (HPC)) was 1 of 6.
For CCOc1ccc2c(c1)n([O-])c1cc(Cl)ccc1[n+]2=O, the survivor count [2] was 0 of 6.
For N=C(N)SCc1ccc(C(=O)Oc2ccc([N+](=O)[O-])cc2)cc1, the survivor count [8] was 0 of 6.
In the case of Cc1ncc([N+](=O)[O-])n1CCO, the T/C (dose: 16.0 mg/kg/injection, schedule: Q01DX009 (ip), vehicle: saline with Tween-80) is reported as 127 % of control, the T/C (dose: 32.0 mg/kg/injection, schedule: Q01DX009 (ip), vehicle: saline with Tween-80) is reported as 126 % of control and the T/C (dose: 256.0 mg/kg/injection, schedule: Q01DX009 (ip), vehicle: saline with Tween-80) is reported as 127 % of control [5 of 6 alive].
In the case of [Cr+6].[NH-]CCC[NH-].[NH-]CCC[NH-].[NH-]CCC[NH-], the T/C (dose: 100.0 mg/kg/injection, schedule: Q01DX001 (ip), vehicle: saline) is reported as 145 % of control.
In the case of CC(=O)Nc1ccc(NN=O)cn1, the T/C (dose: 25.0 mg/kg/injection, schedule: Q01DX009 (ip), vehicle: water) is reported as 125 % of control, the T/C (dose: 50.0 mg/kg/injection, schedule: Q01DX009 (ip), vehicle: water) is reported as 125 and 134 % of control and the T/C (dose: 100.0 mg/kg/injection, schedule: Q01DX009 (ip), vehicle: water) is reported as 135 % of control.
For CC(CCN(C)C)N(C)C (stereo unspecified), the survivor count (dose: 200.0 mg/kg/injection, schedule: Q01DX005 (ip), vehicle: suspension in saline) was 4 of 5.
For CC1CCCC(C)N1Cc1ccccc1 (stereo unspecified), the survivor count [4] was 0 of 6 and the survivor count [2] was 0 of 6.
For N=C(N)SCCCC(=O)O, the survivor count (dose: 50.0 mg/kg/injection, schedule: Q01DX009 (ip), vehicle: saline) was 3 of 6, the survivor count (dose: 100.0 mg/kg/injection, schedule: Q01DX009 (ip), vehicle: saline) was 1 of 6 and the survivor count [5] was 0 of 6.
NCCCNCCSP(=O)(O)O was tested, and the T/C [11] was 135 % of control, the survivor count [5] was 3 of 6 and the survivor count [9] was 0 of 6. For the same compound, the survivor count (dose: 400.0 mg/kg/injection, schedule: Q01DX009 (ip), vehicle: saline) was 5 of 6.
With Cc1ccc2cccnc2c1NCCCCCNC(C)C the survivor count [4] was 0 of 5 and the survivor count [2] was 0 of 5.
In the case of CC1(Cc2ccccc2)N=C1c1ccccc1 (stereo unspecified), the survivor count [12] is reported as 3 of 6.
For C=C(C)C1NC(=O)C(C(O)c2cc(O)c(O)c(Cl)c2)N(C)C(=O)/C(=C/C(=O)O)NC(=O)/C(=C(\C)CC)NC(=O)C2C=CCN2C(=O)C(C(C)(O)CC)NC1=O (stereo unspecified), the survivor count (dose: 5.0 mg/kg/injection, schedule: Q01DX005 (ip), vehicle: Klucel (hydroxypropylcellulose) (HPC)) was 6 of 6.
For CN=C(NC)c1ccc(NC(=O)c2ccc(C(=O)Nc3ccc(C(=NC)NC)c(OC)c3)c(Cl)c2)cc1OC, the survivor count (dose: 6.25 mg/kg/injection, schedule: Q01DX005 (ip), vehicle: saline with Tween-80) was 0 of 6, the survivor count (dose: 12.5 mg/kg/injection, schedule: Q01DX005 (ip), vehicle: saline with Tween-80) was 0 of 6 and the survivor count (dose: 25.0 mg/kg/injection, schedule: Q01DX005 (ip), vehicle: saline with Tween-80) was 0 of 6. The survivor count [3] was 0 of 6, the survivor count [4] was 0 of 6 and the survivor count [2] was 0 of 6.
CC[CH2][Pb]([CH2]CC)([CH2]CC)[O]C(=O)C1CCCCC1 was tested, and the T/C (dose: 5.0 mg/kg/injection, schedule: Q01DX009 (ip), vehicle: saline with Tween-80) was 125 % of control and the T/C (dose: 10.0 mg/kg/injection, schedule: Q01DX009 (ip), vehicle: saline with Tween-80) was 134 % of control.
In the case of N#CC1(Nc2ccccc2)CCCC1, the T/C (dose: 3.13 mg/kg/injection, schedule: Q01DX009 (ip), vehicle: Klucel (hydroxypropylcellulose) (HPC)) is reported as 127 % of control and the T/C (dose: 25.0 mg/kg/injection, schedule: Q01DX009 (ip), vehicle: Klucel (hydroxypropylcellulose) (HPC)) is reported as 130 % of control.
In the case of CC[N+](C)(C)c1ccc(C(=C2C=CC(=[N+](C)C)C=C2)c2ccc(N(C)C)cc2)cc1, the survivor count (dose: 50.0 mg/kg/injection, schedule: Q01DX005 (ip), vehicle: saline) is reported as 0 of 5, the survivor count (dose: 100.0 mg/kg/injection, schedule: Q01DX005 (ip), vehicle: saline) is reported as 0 of 5 and the survivor count [1] is reported as 0 of 5.
With CC(C)=CCCC(C)=CCON(C)C (mixture of isomers) the survivor count [12] was 1 of 6.
For C=CCSc1ncnc2nc[nH]c12, the survivor count (dose: 200.0 mg/kg/injection, schedule: Q01DX009 (ip), vehicle: saline with Tween-80) was 3 of 6 and the survivor count [8] was 0 of 6.
Cc1cc(NCCCN(C)C)c2ccc3c(ccc4c(NCCCN(C)C)cc(C)nc43)c2n1 was tested, and the T/C [10] was 125 % of control and the survivor count [11] was 0 of 6.
